# According to US20230293469A1, “NOVEL PHARMACEUTICAL COMPOSITIONS” (NEUROPRO THERAPEUTICS, INC., priority 2020, published 2023):
# “And” between values parts separate entries of the source, which are not always exact repeats. Equal values may be shown once. At least one read-out could not be matched to a standard name with certainty.
# Test: Oral dose PK of NPT2042 in dog (AUC for absolute bioavailability)
# Assay type: in vivo
# Conditions: oral 30 mg/kg, animals D0001, D0601, Mean
# Description: Assays were performed to determine absolute bioavailability of NPT2042 in two species: dog and rat. The calculation of absolute bioavailability depends on four inputs: the areas under the curves (AUC) for oral and IV, and the oral and IV doses.
# Testing was conducted to determine AUCs for an oral dose in dog.
# Two dogs were each dosed 30 mg/kg NPT2042 orally, on two different days.
smiles,measurement,value
"CCCCNc1cc(C(=O)N(Cc2ccccc2)Cc2ccccc2)cc(S(N)(=O)=O)c1Oc1ccccc1 [NPT-2042, N,N-Dibenzyl 3-Aminosulfonyl-5-butylamino-4-phenoxybenzamide]",Vz/F,134 L/kg and 124 L/kg
